Results on 31 targets are retold here after the supplement of paper PMC10849652.

By UniProt entry, the sequences of proteins in these tests, tags left out. Where a name states a change or a piece, a line headed by the entry shows the natural chain unless it says otherwise.
UniProt Q3KRA6: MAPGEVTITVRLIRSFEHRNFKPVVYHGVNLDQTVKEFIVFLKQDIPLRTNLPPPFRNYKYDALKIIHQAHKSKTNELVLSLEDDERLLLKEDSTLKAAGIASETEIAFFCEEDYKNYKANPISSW
UniProt Q9HAS0: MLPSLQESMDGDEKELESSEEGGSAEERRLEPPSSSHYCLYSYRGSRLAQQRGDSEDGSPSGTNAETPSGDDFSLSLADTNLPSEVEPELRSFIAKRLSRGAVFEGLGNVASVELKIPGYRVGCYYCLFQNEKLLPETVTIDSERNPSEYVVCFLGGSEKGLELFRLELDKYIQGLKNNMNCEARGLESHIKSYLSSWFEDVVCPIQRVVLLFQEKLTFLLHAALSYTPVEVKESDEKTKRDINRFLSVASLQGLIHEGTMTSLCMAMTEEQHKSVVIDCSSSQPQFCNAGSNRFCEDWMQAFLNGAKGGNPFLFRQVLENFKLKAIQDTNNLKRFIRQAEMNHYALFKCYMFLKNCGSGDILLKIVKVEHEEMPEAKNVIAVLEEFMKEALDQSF
UniProt Q8WVQ1: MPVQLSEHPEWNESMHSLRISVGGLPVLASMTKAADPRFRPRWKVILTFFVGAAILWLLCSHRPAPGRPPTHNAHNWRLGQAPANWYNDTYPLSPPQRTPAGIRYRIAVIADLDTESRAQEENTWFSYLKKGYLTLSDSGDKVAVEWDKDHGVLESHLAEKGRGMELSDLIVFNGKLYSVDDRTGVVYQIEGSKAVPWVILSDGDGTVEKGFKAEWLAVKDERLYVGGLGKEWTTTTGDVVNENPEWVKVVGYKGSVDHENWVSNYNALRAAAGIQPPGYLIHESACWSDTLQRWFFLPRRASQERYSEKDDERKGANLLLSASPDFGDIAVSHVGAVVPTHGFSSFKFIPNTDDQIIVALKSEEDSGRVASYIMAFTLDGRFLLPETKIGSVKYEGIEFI
UniProt Q8N8R5: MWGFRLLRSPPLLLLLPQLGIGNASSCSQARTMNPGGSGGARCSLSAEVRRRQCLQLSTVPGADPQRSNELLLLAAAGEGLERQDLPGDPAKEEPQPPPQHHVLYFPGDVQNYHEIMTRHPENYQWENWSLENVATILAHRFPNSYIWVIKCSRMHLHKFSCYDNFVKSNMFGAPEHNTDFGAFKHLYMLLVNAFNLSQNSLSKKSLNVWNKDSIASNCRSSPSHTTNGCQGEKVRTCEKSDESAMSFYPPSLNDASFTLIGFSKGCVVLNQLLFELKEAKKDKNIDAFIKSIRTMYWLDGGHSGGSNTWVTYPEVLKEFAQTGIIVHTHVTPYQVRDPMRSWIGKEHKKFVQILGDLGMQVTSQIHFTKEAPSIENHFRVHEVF
UniProt Q8N5I9: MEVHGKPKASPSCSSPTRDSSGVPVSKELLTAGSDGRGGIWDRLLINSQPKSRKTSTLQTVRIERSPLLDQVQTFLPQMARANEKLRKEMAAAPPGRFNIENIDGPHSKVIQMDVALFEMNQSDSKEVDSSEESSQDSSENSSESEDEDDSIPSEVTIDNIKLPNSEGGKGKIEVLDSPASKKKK
UniProt Q7KYR7: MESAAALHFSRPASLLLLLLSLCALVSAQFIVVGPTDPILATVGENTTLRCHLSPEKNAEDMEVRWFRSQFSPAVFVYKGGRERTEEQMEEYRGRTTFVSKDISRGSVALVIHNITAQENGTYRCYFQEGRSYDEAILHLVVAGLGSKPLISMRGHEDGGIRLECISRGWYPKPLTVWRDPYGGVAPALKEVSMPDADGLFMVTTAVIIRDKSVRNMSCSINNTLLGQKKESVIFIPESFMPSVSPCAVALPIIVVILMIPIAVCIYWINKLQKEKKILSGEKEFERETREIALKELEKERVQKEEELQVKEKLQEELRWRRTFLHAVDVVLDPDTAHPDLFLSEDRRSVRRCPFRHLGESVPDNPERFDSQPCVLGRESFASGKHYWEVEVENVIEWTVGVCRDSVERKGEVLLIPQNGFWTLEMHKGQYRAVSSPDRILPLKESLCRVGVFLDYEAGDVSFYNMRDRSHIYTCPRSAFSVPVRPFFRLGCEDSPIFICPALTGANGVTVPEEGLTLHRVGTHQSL
UniProt P17655: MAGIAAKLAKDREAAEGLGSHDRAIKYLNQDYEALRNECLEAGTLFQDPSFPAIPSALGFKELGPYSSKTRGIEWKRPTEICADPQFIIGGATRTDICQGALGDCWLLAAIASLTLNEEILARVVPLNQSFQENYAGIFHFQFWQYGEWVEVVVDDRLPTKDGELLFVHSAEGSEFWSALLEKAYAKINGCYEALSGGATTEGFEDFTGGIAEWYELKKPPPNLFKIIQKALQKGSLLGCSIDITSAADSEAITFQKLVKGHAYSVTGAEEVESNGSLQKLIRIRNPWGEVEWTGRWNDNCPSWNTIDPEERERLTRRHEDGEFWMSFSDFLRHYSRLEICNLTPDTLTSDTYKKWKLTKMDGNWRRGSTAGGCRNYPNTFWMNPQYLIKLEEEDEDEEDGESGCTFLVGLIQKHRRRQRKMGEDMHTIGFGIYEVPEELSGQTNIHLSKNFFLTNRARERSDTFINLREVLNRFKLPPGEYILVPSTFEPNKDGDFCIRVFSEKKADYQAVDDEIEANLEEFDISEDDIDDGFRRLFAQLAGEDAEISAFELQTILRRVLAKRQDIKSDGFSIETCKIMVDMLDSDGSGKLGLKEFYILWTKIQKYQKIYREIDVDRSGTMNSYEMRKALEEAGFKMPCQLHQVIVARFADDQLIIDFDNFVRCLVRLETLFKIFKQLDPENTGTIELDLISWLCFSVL
UniProt Q8IYL3: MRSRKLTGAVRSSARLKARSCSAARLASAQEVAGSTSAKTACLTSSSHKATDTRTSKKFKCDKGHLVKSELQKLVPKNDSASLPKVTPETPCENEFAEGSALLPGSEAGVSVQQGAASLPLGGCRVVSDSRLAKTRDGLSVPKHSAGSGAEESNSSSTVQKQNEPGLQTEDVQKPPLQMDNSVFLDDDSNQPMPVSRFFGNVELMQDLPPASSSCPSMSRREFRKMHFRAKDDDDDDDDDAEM
UniProt P27482, whole entry, looked up: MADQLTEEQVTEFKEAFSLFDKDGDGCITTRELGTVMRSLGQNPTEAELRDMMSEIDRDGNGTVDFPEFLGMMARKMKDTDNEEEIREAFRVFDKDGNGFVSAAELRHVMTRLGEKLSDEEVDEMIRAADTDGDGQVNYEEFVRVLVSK
UniProt Q96L46: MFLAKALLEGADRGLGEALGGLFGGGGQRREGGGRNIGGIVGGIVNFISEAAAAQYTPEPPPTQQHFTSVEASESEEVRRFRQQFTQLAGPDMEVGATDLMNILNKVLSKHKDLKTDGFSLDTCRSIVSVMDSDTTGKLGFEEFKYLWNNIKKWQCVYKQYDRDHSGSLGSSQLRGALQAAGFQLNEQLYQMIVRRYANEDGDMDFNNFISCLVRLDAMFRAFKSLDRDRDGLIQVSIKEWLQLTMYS
UniProt Q6UWU4: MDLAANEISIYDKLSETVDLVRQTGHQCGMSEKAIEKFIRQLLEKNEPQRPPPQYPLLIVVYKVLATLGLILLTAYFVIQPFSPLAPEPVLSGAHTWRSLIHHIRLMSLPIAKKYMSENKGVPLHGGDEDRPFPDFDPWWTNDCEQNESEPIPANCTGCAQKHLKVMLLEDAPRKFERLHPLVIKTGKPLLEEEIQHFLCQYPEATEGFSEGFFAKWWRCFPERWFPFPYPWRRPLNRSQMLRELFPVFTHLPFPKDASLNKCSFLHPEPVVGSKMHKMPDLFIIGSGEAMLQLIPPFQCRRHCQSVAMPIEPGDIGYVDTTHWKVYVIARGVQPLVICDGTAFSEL
UniProt P43251: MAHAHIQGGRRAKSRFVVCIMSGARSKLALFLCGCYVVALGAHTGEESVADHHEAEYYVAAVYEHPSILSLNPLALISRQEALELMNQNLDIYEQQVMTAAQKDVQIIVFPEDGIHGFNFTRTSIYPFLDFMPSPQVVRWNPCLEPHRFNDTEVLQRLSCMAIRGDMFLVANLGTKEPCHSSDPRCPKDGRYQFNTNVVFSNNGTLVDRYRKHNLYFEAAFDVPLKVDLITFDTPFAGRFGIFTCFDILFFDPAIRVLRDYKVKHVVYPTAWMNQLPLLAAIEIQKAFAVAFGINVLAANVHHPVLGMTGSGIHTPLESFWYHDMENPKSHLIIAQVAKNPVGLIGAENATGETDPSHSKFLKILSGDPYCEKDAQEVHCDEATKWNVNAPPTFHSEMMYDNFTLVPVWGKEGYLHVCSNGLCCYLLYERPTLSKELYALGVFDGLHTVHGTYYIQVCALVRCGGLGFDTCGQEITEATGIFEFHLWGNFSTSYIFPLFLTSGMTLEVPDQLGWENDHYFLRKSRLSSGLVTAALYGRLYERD
UniProt Q9HB71, whole entry, looked up: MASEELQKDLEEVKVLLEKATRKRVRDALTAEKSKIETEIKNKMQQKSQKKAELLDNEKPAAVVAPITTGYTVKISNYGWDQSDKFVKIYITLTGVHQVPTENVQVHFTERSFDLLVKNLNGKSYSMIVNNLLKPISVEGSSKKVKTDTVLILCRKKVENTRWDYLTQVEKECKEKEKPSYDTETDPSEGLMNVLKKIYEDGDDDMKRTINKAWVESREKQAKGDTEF
UniProt Q8N999, whole entry, looked up: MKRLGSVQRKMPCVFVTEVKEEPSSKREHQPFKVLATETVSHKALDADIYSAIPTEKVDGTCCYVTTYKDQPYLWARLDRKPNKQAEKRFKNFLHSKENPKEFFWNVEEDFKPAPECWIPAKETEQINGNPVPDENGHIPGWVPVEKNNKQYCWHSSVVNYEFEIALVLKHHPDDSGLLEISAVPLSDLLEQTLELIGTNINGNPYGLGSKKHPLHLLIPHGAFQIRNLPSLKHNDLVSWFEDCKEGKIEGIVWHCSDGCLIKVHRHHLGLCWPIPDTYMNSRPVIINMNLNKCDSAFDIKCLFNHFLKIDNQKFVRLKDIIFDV
UniProt P40121: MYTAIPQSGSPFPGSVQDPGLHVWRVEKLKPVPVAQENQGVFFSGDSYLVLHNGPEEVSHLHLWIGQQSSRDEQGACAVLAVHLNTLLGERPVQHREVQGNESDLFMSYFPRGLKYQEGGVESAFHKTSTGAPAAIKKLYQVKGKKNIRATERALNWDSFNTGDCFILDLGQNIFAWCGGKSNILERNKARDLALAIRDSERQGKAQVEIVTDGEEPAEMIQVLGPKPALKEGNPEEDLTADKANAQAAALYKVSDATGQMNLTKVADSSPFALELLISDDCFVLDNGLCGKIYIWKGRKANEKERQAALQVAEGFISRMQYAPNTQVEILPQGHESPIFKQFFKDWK
UniProt Q96B23: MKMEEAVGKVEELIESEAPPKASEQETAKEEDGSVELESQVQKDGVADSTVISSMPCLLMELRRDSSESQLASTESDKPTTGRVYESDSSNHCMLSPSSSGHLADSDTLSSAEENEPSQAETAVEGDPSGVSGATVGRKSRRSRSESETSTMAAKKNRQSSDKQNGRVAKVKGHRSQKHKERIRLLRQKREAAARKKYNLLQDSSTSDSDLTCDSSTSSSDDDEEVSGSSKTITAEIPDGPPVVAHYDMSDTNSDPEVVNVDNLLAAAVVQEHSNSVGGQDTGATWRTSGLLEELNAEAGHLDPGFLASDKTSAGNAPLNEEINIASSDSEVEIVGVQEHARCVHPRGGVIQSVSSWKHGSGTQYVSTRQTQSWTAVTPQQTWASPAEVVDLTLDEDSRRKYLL
UniProt Q9UFG5: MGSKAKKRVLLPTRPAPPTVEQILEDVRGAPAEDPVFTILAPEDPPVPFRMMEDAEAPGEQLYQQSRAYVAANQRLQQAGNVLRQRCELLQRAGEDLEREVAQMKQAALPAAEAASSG
UniProt Q14012: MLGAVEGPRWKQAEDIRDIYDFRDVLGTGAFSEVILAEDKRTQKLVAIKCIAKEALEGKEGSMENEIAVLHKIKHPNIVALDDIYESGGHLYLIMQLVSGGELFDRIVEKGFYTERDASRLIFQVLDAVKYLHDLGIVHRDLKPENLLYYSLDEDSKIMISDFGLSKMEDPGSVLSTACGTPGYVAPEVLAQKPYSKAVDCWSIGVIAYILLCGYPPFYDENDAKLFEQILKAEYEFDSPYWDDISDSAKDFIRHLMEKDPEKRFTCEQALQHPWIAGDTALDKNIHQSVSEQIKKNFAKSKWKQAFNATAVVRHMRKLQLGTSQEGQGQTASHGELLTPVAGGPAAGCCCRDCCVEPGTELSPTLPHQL
UniProt Q9Y2V2: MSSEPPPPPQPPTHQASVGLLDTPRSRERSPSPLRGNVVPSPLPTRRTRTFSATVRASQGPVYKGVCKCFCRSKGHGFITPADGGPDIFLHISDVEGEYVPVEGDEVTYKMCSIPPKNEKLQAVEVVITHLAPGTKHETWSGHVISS
UniProt Q5JPI3: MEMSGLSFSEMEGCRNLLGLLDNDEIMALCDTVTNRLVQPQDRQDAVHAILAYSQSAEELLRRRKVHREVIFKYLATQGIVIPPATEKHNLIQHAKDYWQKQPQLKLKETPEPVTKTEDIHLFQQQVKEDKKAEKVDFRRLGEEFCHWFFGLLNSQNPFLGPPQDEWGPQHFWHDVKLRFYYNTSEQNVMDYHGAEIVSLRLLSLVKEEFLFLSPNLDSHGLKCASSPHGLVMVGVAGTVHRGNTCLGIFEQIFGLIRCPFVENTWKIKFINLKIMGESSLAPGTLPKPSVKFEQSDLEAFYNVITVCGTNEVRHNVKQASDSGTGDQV

The other results are listed elsewhere or left out.

Compound in this experiment: c1cn2cc(-c3ccc4cn[nH]c4c3)nc(Nc3ccc(N4CCOCC4)cc3)c2n1 [entospletinib]
As to the kind of experiment: log2 fold change, soluble protein after heating vs DMSO (PISA); higher = thermal stabilisation; K562 cells, 10 uM, 30 min; active = over 0.2 and 3.5 SD of the protein, either way, in both replicates (recomputed). In outline:
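K562 cells at 2×10^6 cells/mL were treated for 30 min with 10 μM compound, and aliquots were heated for 3 min over 48°C-58°C before pooling. Extraction used PBS with 0.5% NP-40 at 4°C, and soluble protein was the supernatant after 21,000xg for 90 min, measured by TMTpro 16plex LC-MS/MS with channel sums equalised. Thermal stability values, relative to control samples and from duplicates, are log2 fold changes.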
With C2orf76 (UniProt Q3KRA6), the log2 fold change was inactive: -0.009. Turning to CAND1 (UniProt Q86VP6), the log2 fold change was inactive: -0.019. Under C8orf82 (UniProt Q6P1X6) stands inactive: -0.002; under C17orf75 (UniProt Q9HAS0), inactive: -0.029. Consider CANT1 (UniProt Q8WVQ1), for which the log2 fold change was inactive: 0.049. As for C2orf69 (UniProt Q8N8R5), the log2 fold change was inactive: -0.046. For C12orf45 (UniProt Q8N5I9), the log2 fold change was inactive: -0.01. In the case of BTN2A1 (UniProt Q7KYR7), the log2 fold change was inactive: -0.161.

Take CAPN2 (UniProt P17655): the log2 fold change is inactive: 0.016.

As to C17orf80 (UniProt Q9BSJ5), the log2 fold change was inactive: -0.116.

Take C1orf174 (UniProt Q8IYL3): the log2 fold change was inactive: 0.069. As for CAPNS1 (UniProt P04632), the log2 fold change is inactive: -0.007. The result for CALR (UniProt P27797) reads inactive: 0.035; that for CALML3 (UniProt P27482), inactive: -0.001; that for CAPNS2 (UniProt Q96L46), inactive: -0.303. C20orf27 isoform 2 (UniProt Q9GZN8): the log2 fold change was inactive: 0.06.

Regarding C6orf89 isoform 2 (UniProt Q6UWU4), the log2 fold change was inactive: -0.024.

Take CAPN1 (UniProt E9PLX0): the log2 fold change is inactive: 0.154. As for BTD isoform 3 (UniProt P43251), the log2 fold change is inactive: 0.187. With C12orf73 (UniProt Q69YU5), the log2 fold change is inactive: 0.039.

For the target CACYBP (UniProt Q9HB71), the log2 fold change was inactive: -0.006. Under CALU isoform 4 (UniProt O43852) stands inactive: -0.001. Under C11orf98 (UniProt E9PRG8) stands inactive: 0.065; under C12orf29 (UniProt Q8N999), inactive: -0.015. CAPG (UniProt P40121): the log2 fold change was inactive: -0.026. In the case of C18orf25 isoform 2 (UniProt Q96B23), the log2 fold change is inactive: 0.026. The result for C19orf25 (UniProt Q9UFG5) reads inactive: -0.029.

For CAMK1 (UniProt Q14012), the log2 fold change was inactive: 0.003. The result for CACTIN isoform 2 (UniProt Q8WUQ7) reads inactive: 0.185. Regarding CARHSP1 (UniProt Q9Y2V2), the log2 fold change was inactive: 0.085. Regarding C3orf38 (UniProt Q5JPI3), the log2 fold change is inactive: -0.008.
